Measurements reported in US20250326639A1, “METHOD FOR PRODUCING HYDROGEN PEROXIDE” (ARKEMA FRANCE, priority 2022, published 2025).
At least one structure is not confirmed: it was looked up by name or label, or the drawing left a doubt.

Assay: Solubility in water by coulometric Karl Fischer titration, ASTM-D6304
Format: physicochemical
Source text: The solubility in water may be determined by coulometric Karl Fischer titration in accordance with the standard ASTM-D6304.

O=C1CCO1 [β-propiolactone]
Solubility in water (mg/kg): 201.2 10^3 mg/kg
